{"sequences": {"note": "Chains of the proteins cited; added tags and fusions are not shown. Residues count along the entry.", "UniProt P24394, residues 26-227": "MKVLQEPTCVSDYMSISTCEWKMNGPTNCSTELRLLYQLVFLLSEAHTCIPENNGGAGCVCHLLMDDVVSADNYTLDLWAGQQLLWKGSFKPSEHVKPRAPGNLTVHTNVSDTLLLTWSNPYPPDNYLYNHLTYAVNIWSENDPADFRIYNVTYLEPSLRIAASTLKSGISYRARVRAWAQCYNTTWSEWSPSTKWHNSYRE"}, "source": "patent US20220017588A1", "key": {"[1]": {"target": "Her2 on engineered K562 cells (UniProt P04626)", "assay": "flow cytometry on K562 lines; binding to Her2 read from IL-2 receptor recruitment after washing"}, "[2]": {"target": "Her2 on engineered K562 cells (UniProt P04626)", "assay": "flow cytometry on K562 lines; binding to Her2 read from IL-2 receptor recruitment to double positive cells after washing"}, "[3]": {"target": "EGFR on engineered K562 cells (UniProt P00533)", "assay": "flow cytometry on K562 lines; binding to EGFR read from IL-2 receptor recruitment to double positive cells after washing"}, "[4]": {"target": "human IL-4Rα (human) (UniProt P24394)", "assay": "biolayer interferometry (FIG. 21)"}}, "note": "Results are given in words; binding and its absence hold for the method and conditions named. Some entries that bind do so weakly or less than the wild type.", "data": [{"binder": "aHer2-Neo2A1 (G3_Her2_DARPin_X1) (designed binder) MGSHHHHHHGSGSENLYFQGSGSGDLGKKLLEAARAGQDDEVRILMANGADVNAKDEYGLTPLYLATAHGHLEIVEVLLKNGADVNAVDAIGFTPLHLAAFIGHLEIAEVLLKHGADVNAQDKFGKTAFDISIGNGNEDLAEILQKLNGSGGSGGGSGGSGSGPKKKIQLHAEHALYDALMILNIVKTNS", "values": [{"measurement": "binding", "setting": "[1]", "result": "binds"}]}, {"binder": "aHer2-Neo2B1 (G3_Her2_DARPin_X2-Z1-X3-Z3-X4) (designed binder) MGSHHHHHHGSGSENLYFQGSGSGDLGKKLLEAARAGQDDEVRILMANGADVNAKDEYGLTPLYLATAHGHLEIVEVLLKNGADVNAVDAIGFTPLHLAAFIGHLEIAEVLLKHGADVNAQDKFGKTAFDISIGNGNEDLAEILQKLNGSGGSGGGSGGSGSGTNSPPAEEKLEDYAFNFELILEEIARLFESGDQKDEAEKAKRMKEWMKRIKTTASEDEQEEMANAIITILQSWIFS", "values": [{"measurement": "binding", "setting": "[1]", "result": "binds"}]}, {"binder": "aHer2-Neo2A2 (G3_Her2_DARPin_X1-Z1-X3) (designed binder) MGSHHHHHHGSGSENLYFQGSGSGDLGKKLLEAARAGQDDEVRILMANGADVNAKDEYGLTPLYLATAHGHLEIVEVLLKNGADVNAVDAIGFTPLHLAAFIGHLEIAEVLLKHGADVNAQDKFGKTAFDISIGNGNEDLAEILQKLNGSGGSGGGSGGSGSGPKKKIQLHAEHALYDALMILNIVKTNSPPAEEKLEDYAFNFELILEEIARLFESG", "values": [{"measurement": "binding", "setting": "[2]", "result": "binds"}]}, {"binder": "Neo2B1-aEGFR (X2-Z1-X3-Z2-X4-E01_EGFR_DARPin) (designed binder) MGSHHHHHHGSGSENLYFQGSGGGTNSPPAEEKLEDYAFNFELILEEIARLFESGDQKDEAEKAKRMKEWMKRIKTTASEDEQEEMANAIITILQSWIFSGSGGSGGGSGGSGSGGSGGGDLGKKLLEAARAGQDDEVRILMANGADVNADDTWGWTPLHLAAYQGHLEIVEVLLKNGADVNAYDYIGWTPLHLAADGHLEIVEVLLKNGADVNASDYIGDTPLHLAAHNGHLEIVEVLLKHGADVNAQDKFGKTAFDISIDNGNEDLAEILQKLN", "values": [{"measurement": "binding", "setting": "[3]", "result": "binds"}]}, {"binder": "Neo2B2-aEGFR (X2-Z2-X4-E01_EGFR_DARPin) (designed binder) MGSHHHHHHGSGSENLYFQGSGGGDQKDEAEKAKRMKEWMKRIKTTASEDEQEEMANAIITILQSWIFSGSGGSGGGSGGSGSGGSGGGDLGKKLLEAARAGQDDEVRILMANGADVNADDTWGWTPLHLAAYQGHLEIVEVLLKNGADVNAYDYIGWTPLHLAADGHLEIVEVLLKNGADVNASDYIGDTPLHLAAHNGHLEIVEVLLKHGADVNAQDKFGKTAFDISIDNGNEDLAEILQKLN", "values": [{"measurement": "binding", "setting": "[3]", "result": "binds"}]}, {"binder": "Neo2B3-aEGFR (X4-E01_EGFR_DARPin) (designed binder) MGSHHHHHHGSGSENLYFQGSGGGTTASEDEQEEMANAIITILQSWIFSGSGGSGGGSGGSGSGGSGGGDLGKKLLEAARAGQDDEVRILMANGADVNADDTWGWTPLHLAAYQGHLEIVEVLLKNGADVNAYDYIGWTPLHLAADGHLEIVEVLLKNGADVNASDYIGDTPLHLAAHNGHLEIVEVLLKHGADVNAQDKFGKTAFDISIDNGNEDLAEILQKLN", "values": [{"measurement": "binding", "setting": "[3]", "result": "binds"}]}, {"binder": "Neo4A1+Neo4B1 (equimolar combination) (designed binder) chain 1: PKKKIQIMAEEALKDALSILNIVKTNS chain 2: TNSPPAEEQLERFAKRFERNLWGIARLFESGDQKDEAEKAKRMIEWMKRIKTTASEDEQEEMANAIITILQSWFFS", "values": [{"measurement": "binding", "setting": "[4]", "result": "binds"}]}]}
